Experimental data taken from PubChem BioAssay AID2685 (National Center for Advancing Translational Sciences (NCATS), 2010).
The list shows a part of the results. The main result of the screen is listed elsewhere. These columns were measured beside it and carry no call. Most of these compounds were active or inconclusive in the main read-out, so they are no random draw. Words in brackets tell the shape of the fitted curve; partial curves, single points and poor fits give uncertain potencies.

Test: qHTS Assay for Lipid Storage Modulators in Drosophila S3 Cells;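 on cell number change: cells counted by Cell Tracker Red CMTPX staining in the red channel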
Conditions: BODIPY lipid droplet fluorescence, 18-24 h; for cell number change: measured here: cell count max response, cells fed with added oleic acid
In short: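 Drosophila S3 cells got compounds at several concentrations plus oleic acid (400 uM solution). Laser-scanning cytometry with 488 nm excitation read lipid droplets at 500-530 nm and cells at 575-640 nm. Percent activity was relative to 20 uM Triacsin C.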

[1] = measured here: cell number channel AC50, cells fed with added oleic acid
[2] = measured here: lipid fluorescence (Fed channel) AC50, cells fed with added oleic acid

Row | Compound | cell number change [%] | AC50 [1] | AC50 [2]
1 | CCOC(=O)c1c(/N=C/c2ccccc2O)sc2c1CCC2 | -45.5 | 29.1 µM [falling, single point] | 29.1 µM [falling, single point]
2 | O=S(=O)(Nc1cccc(-n2cnnn2)c1)c1cc(Br)ccc1Br | – | – | 0.13 µM [falling, full curve, poor fit]
3 | COc1cc(CC(=O)OCC(=O)Nc2ccc(Cl)c(S(=O)(=O)N(C)C)c2)cc(OC)c1OC | -24.8 | 2.59 µM [falling, full curve, poor fit] | 2.31 µM [falling, partial curve, poor fit]
4 | O=C(CN1C(=O)C2CCCCC2C1=O)Nc1nc(-c2ccccn2)cs1 (stereo unspecified) | 48.5 | 29.1 µM [rising, single point] | 29.1 µM [rising, single point]
5 | Cc1ccc(Cn2ccc(O)c(Cc3ccccc3)c2=O)cc1 | -46.3 | 6.51 µM [falling, single point] | –
6 | O=C(COc1ncnc2cc([N+](=O)[O-])ccc12)NCc1ccc2c(c1)OCO2 | 32.4 | 11.6 µM [rising, partial curve, poor fit] | –
7 | Cc1ccc(S(=O)(=O)N2CCC(C(=O)OCC(=O)NC3(C#N)CCCCC3)CC2)cc1C | 7.05 | – | –
8 | CCOc1ccc(-n2c(SCC(=O)NCc3ccco3)nc3c(c2=O)SCC3)cc1 | 11.6 | – | 0.731 µM [rising, partial curve]
9 | O=C(O)c1ccc(NC(=S)NC(=O)c2cncc(Br)c2)cc1 | – | – | 29.1 µM [falling, single point]
10 | CCCN(CCC)c1cc(Cl)nc(N)n1 | 51 | – | –
11 | COC(=O)NCC(c1ccc2c(c1)OCO2)N1CCN(c2ccccc2)CC1 (stereo unspecified) | -1.19 | – | –
12 | Cc1ccc(SCC(=O)NCCc2ccccc2)cc1 | 9.97 | – | –
13 | CN1C(=O)c2ccc(S(=O)(=O)c3ccc(C(=O)O)cc3)cc2C1=O | -61.3 | 29.1 µM [falling, single point] | 0.00651 µM [falling, full curve, poor fit]
14 | O=C(COc1ccc2ccc(=O)oc2c1)NCCCn1ccnc1 | 7.16 | – | 2.91 µM [rising, single point]
15 | CC(=O)N1N=C(c2cccc(O)c2)CC1c1cccs1 (stereo unspecified) | 10.9 | – | 18.4 µM [rising, single point]
16 | O=C(Nc1ccccc1Cl)N1CCn2c(nc3ccccc32)C1 | -9.16 | – | 16.4 µM [falling, single point]
17 | CN1CCc2c(sc(NC(=O)c3cc(Cl)sc3Cl)c2C(N)=O)C1 | -8.36 | – | 0.58 µM [falling, partial curve]
18 | O=C(CCCCCCCC(=O)NNC(=O)Nc1ccccc1)NNC(=O)Nc1ccccc1 | -69.7 | 29.1 µM [falling, single point] | 6.51 µM [falling, single point]
19 | C=CCNc1ccc(C(=O)O)cc1 | -34.5 | 23.1 µM [falling, single point] | 7.31 µM [falling, single point]

Looked up one by one from the list above, 2 records:
Row | Compound | cell number change [%] | AC50 [1] | AC50 [2]
2 | O=S(=O)(Nc1cccc(-n2cnnn2)c1)c1cc(Br)ccc1Br | – | – | 0.13 µM [falling, full curve, poor fit]
4 | O=C(CN1C(=O)C2CCCCC2C1=O)Nc1nc(-c2ccccn2)cs1 (stereo unspecified) | 48.5 | 29.1 µM [rising, single point] | 29.1 µM [rising, single point]

Continuation.

Row | Compound | cell number change [%] | AC50 [1] | AC50 [2]
20 | CO/N=C/c1c(C(=O)OC)nn(-c2ccccc2)c1Cl | 16.6 | – | –
21 | CCOC(=O)N1CCC(NC(=O)C2=CCN(S(=O)(=O)c3ccc(F)cc3)CC2)CC1 | -26.3 | 0.651 µM [falling, full curve, poor fit] | 0.651 µM [falling, full curve]
22 | O=C(Cc1ccc(Cl)cc1)Nc1ccc(S(=O)(=O)Nc2ncccn2)cc1 | -30.5 | 7.31 µM [falling, partial curve] | –
23 | c1ccc2c(c1)OCc1cn[nH]c1-2 | 9.81 | – | –
24 | COc1ccc(CC(NC(C)=O)C(=O)N2CCN(C(=O)Nc3cccc(Cl)c3)CC2)cc1OC (stereo unspecified) | 17.9 | – | 0.00517 µM [rising, full curve, poor fit]
25 | CCCCn1c(Nc2ccccc2)nc2ccccc21 | – | 2.06 µM [rising, partial curve] | 6.51 µM [rising, single point]
26 | CCOC(=O)c1[nH]c(C)c(C(=O)OCc2c(C)noc2C)c1C | 17.1 | – | –
27 | O=C(NC1CCCCCC1)C1c2ccccc2C(=O)N1CCCN1CCOCC1 (stereo unspecified) | 4.22 | – | –
28 | O=C(CN1CCN(S(=O)(=O)c2ccccc2)CC1)NC(=O)NCc1ccco1 | -4.09 | – | 0.92 µM [rising, full curve, poor fit]
29 | COc1cc(OC)c(C2C(C(=O)O)c3ccccc3C(=O)N2C)cc1OC (stereo unspecified) | 19 | – | 29.1 µM [rising, single point]
30 | CCC(=O)Oc1cccc(C(=O)Nc2cccc(NC(=O)c3ccco3)c2)c1 | -13.2 | 2.31 µM [falling, partial curve, poor fit] | 0.1 µM [rising, full curve, poor fit]
31 | Cc1cc2ncc(-c3cccc(Cl)c3)cn2n1 | -36.6 | 0.291 µM [falling, full curve, poor fit] | 0.731 µM [falling, partial curve, poor fit]
32 | Cc1ccccc1NC(=S)N1CCN(c2ccccc2)CC1 | 20.1 | – | 32.6 µM [rising, single point]
33 | CCn1cc(CNC(=O)CCSc2nc(-c3ccco3)cc(C(F)(F)F)n2)cn1 | 43.5 | 7.31 µM [rising, partial curve] | –
34 | CC1(c2ccc(OC(F)F)cc2)NC(=O)N(CC(=O)N2CCN(C(=O)c3ccco3)CC2)C1=O (stereo unspecified) | -13.8 | – | 0.00517 µM [falling, full curve, poor fit]
35 | CCCN(Cc1nc(-c2ccc(Cl)cc2)no1)CC1CCCO1 (stereo unspecified) | -7.28 | – | 16.4 µM [falling, single point]
36 | O=C1c2cccc3c(O)ccc(c23)C(=O)N1Cc1ccccc1 | -99 | 29.1 µM [falling, single point] | 29.1 µM [falling, single point]
37 | Cc1nn(C)c(C)c1NC(=O)COc1ccc(Cl)cc1Br | -17.2 | – | 0.146 µM [rising, full curve, poor fit]
38 | O=C(NCCS(=O)(=O)N1CCN(c2ccccc2F)CC1)c1ccc(Br)o1 | -9.56 | – | 16.4 µM [falling, single point]
